We go through 31 compounds from PubChem BioAssay AID248 (DTP/NCI, 2004).

The list is a part of this screen's results and no random one: it is rich in T/C values a quarter to a half above the control, in often repeated tests (any T/C) and in doses without a T/C. Other doses and runs of a compound stand elsewhere. T/C: endpoint of the treated group in % of that of the vehicle group. Some entries give survivors of the animals treated and no T/C: the source files T/C as zero there, which appears to mark a toxic dose or a test without result, not a measured value. Some doses without a T/C left all or most animals alive at the check, yet need not have been tolerated: survival well below the control is almost never listed, so the zero probably covers shortened survival too. Counts of survivors are from the toxicity check (mostly the fifth day) where no day follows; animals may have died later. Schedules are NCI's codes, read here as Q, the interval in days (D) or hours (H), X, the number of doses. Some entries were tested several times; their values stand side by side, smallest first. Some schedules carry Z or #; the key to these is not given.

This assay has as its system L1210 leukemia ip in BDF1 mice, survival T/C. Kind of assay: NCI In Vivo Anticancer Drug Screen. Data for tumor model L1210 Leukemia (intraperitoneal) in B6D2F1 (BDF1) mice. Conditions: T/C endpoint: mean survival time, higher T/C = longer survival.
[1] abbreviates: dose: 400.0 mg/kg/injection, schedule: Q01DX001 (ip), vehicle: saline.
[2] abbreviates: dose: 200.0 mg/kg/injection, schedule: Q01DX009 (ip), vehicle: Klucel (hydroxypropylcellulose) (HPC).
Setting [3] is: dose: 400.0 mg/kg/injection, schedule: Q04DX003 (ip), vehicle: Klucel (hydroxypropylcellulose) (HPC).
The mark [4] stands for this setting: dose: 400.0 mg/kg/injection, schedule: Q01DX001 (ip), vehicle: carboxymethylcellulose (CMC).
Where [5] appears, read: dose: 300.0 mg/kg/injection, schedule: Q01DX001 (ip), vehicle: saline.
Setting [6] is: dose: 100.0 mg/kg/injection, schedule: Q04DX003 (ip), vehicle: Klucel (hydroxypropylcellulose) (HPC).
Setting [7] is: dose: 50.0 mg/kg/injection, schedule: Q01DX009 (ip), vehicle: Klucel (hydroxypropylcellulose) (HPC).
Setting [8] is: dose: 50.0 mg/kg/injection, schedule: Q04DX003 (ip), vehicle: Klucel (hydroxypropylcellulose) (HPC).
Setting [9] is: dose: 200.0 mg/kg/injection, schedule: Q04DX003 (ip), vehicle: Klucel (hydroxypropylcellulose) (HPC).

Take `Nc1c(Cl)ccc2c(Cl)ccnc12`: the survivor count (dose: 75.0 mg/kg/injection, schedule: Q04DX003 (ip), vehicle: other) was 6 of 6.

`CC(C)(CS(C)(=O)=O)C(=O)O`: the survivor count (dose: 200.0 mg/kg/injection, schedule: Q01DX009 (ip), vehicle: saline) was 6 of 6.

With `[Tl][CH]1C=CC=C1`, the survivor count by setting is: (dose: 200.0 mg/kg/injection, schedule: Q01DX001 (ip), vehicle: acetone) 2 of 6; (dose: 400.0 mg/kg/injection, schedule: Q01DX001 (ip), vehicle: acetone) 0 of 6.

Regarding `NC(Cc1ccccc1)C(=O)NCCCCCCCCCCNC(=O)C(N)Cc1ccccc1` (centres undefined), the survivor count under setting [1] is recorded as 2 of 4.

For the compound `NC(N)=N/N=C/CO`, the survivor count is, setting by setting: (dose: 15.0 mg/kg/injection, schedule: Q01DX Z (ip), vehicle: saline) 2 of 6; (dose: 30.0 mg/kg/injection, schedule: Q01DX Z (ip), vehicle: saline) 0 of 6; (dose: 60.0 mg/kg/injection, schedule: Q01DX Z (ip), vehicle: saline) 0 of 6; (dose: 120.0 mg/kg/injection, schedule: Q01DX Z (ip), vehicle: saline) 0 of 6; (dose: 480.0 mg/kg/injection, schedule: Q01DX Z (oral), vehicle: saline) 6 of 6; (dose: 960.0 mg/kg/injection, schedule: Q01DX Z (oral), vehicle: saline) 4 of 6.

As to `NC(Cc1cnc(N=Nc2ccc(N=Nc3ncc(CC(N)C(=O)O)[nH]3)cc2)[nH]1)C(=O)O` (centres undefined), under setting [2], the survivor count is recorded as 3 of 3.

In the case of `CCN(CC)CCC(=O)OC(c1ccccc1)C1(O)CCSC1` (centres undefined), the survivor count under setting [3] is on record as 0 of 6.

Take `Cc1cc2cc3ccc(Cl)nn3c2n[n+]1[O-]`: the survivor count (dose: 250.0 mg/kg/injection, schedule: Q04DX002 (ip), vehicle: Klucel (hydroxypropylcellulose) (HPC)) is 2 of 3.

For the compound `c1ccc([C@H]2CN3CCSC3=N2)cc1`, the survivor count (dose: 40.0 mg/kg/injection, schedule: Q01DX009 (ip), vehicle: saline) is given as 2 of 6.

With `C1=Cc2ccccc2Sc2ccccc21`, the survivor count runs as follows: (dose: 100.0 mg/kg/injection, schedule: Q01DX001 (ip), vehicle: carboxymethylcellulose (CMC)) 4 of 4; under setting [4], 4 of 4.

`NC(Cc1ccccc1)C(=O)O` (centres undefined): the survivor count under setting [3] is reported as 6 of 6.

As for `C/C=C/CC1(CC)C(=O)NC(=O)NC1=O`, the survivor count under setting [5] was 0 of 6.

Consider `COc1cccc(/C(C)=C2\SC(=S)NC2=O)c1`, for which the survivor count under setting [4] is reported as 1 of 4.

For the compound `CC1(C)C(=O)NC(=O)C1(C)C`, the survivor count is, setting by setting: (dose: 25.0 mg/kg/injection, schedule: Q03HX024 (ip), vehicle: saline) 0 of 6; (dose: 100.0 mg/kg/injection, schedule: Q01DX009 (ip), vehicle: saline) 0 of 6; (dose: 132.0 mg/kg/injection, schedule: Q01DX009 (ip), vehicle: saline) 0 of 6; (dose: 264.0 mg/kg/injection, schedule: Q01DX009 (ip), vehicle: saline) 0 of 6; under setting [5], 0 of 6.

Regarding `CCCCCCCCCCCCC1C(=O)NC(=S)NC1=O`, the survivor count (dose: 300.0 mg/kg/injection, schedule: Q01DX001 (ip), vehicle: other) is on record as 0 of 6.

Regarding `c1cn[nH]c1`, the survivor count under setting [4] is on record as 2 of 4.

As to `COC1OC(C2N(c3ccccc3)CCN2c2ccccc2)=CC(OC(C)=O)C1OC(C)=O` (centres undefined), the survivor count under setting [2] was 6 of 6.

Take `O=[N+]([O-])c1ccc(C=Nc2cccc3ncccc23)s1`: the survivor count under setting [3] is reported as 0 of 6.

As to `Nc1nc(NCCCc2ccccc2)cc(=O)[nH]1`, the survivor count (dose: 100.0 mg/kg/injection, schedule: Q04DX003 (ip), vehicle: saline with Tween-80) is on record as 3 of 6.

With `O=C(O)C1C(C(=O)O)C2(Cl)C(Cl)=C(Cl)C1(Cl)C2(Cl)Cl.[Cu+2]` (centres undefined), the survivor count is given as 0 of 6 (dose: 100.0 mg/kg/injection, schedule: Q01DX001 (ip), vehicle: Klucel (hydroxypropylcellulose) (HPC)); 0 of 6 (dose: 100.0 mg/kg/injection, schedule: Q01DX009 (ip), vehicle: saline sonified); 0 of 6 (dose: 200.0 mg/kg/injection, schedule: Q01DX009 (ip), vehicle: saline sonified).

Consider `NC(=O)C1(N2CCCC2)CCN(Cc2ccccc2)CC1`, for which the survivor count under setting [3] was 1 of 6.

On to `O=C1c2ccccc2C(=O)N1c1c[nH]c(=O)[nH]c1=O`, for which the survivor count under setting [6] is 2 of 6.

On to `Cc1cccc(OC(=O)Nc2ccc(C(=O)O)c(O)c2)c1`, for which the survivor count is 0 of 3 and 0 of 6 (dose: 400.0 mg/kg/injection, schedule: Q01DX001 (ip), vehicle: gum acacia); 0 of 3 and 0 of 6 (dose: 400.0 mg/kg/injection, schedule: Q01DX009 (ip), vehicle: gum acacia); 2 of 6 and 3 of 3 (dose: 400.0 mg/kg/injection, schedule: Q04DX002 (ip), vehicle: gum acacia).

Turning to `Cc1ccc(NCC(O)CN2CCCC2)cc1` (centres undefined), the survivor count is, setting by setting: under setting [7], 6 of 6; under setting [8], 1 of 6; (dose: 100.0 mg/kg/injection, schedule: Q01DX001 (ip), vehicle: other) 0 of 6; (dose: 100.0 mg/kg/injection, schedule: Q01DX009 (ip), vehicle: Klucel (hydroxypropylcellulose) (HPC)) 5 of 6; (dose: 200.0 mg/kg/injection, schedule: Q01DX001 (ip), vehicle: other) 0 of 6; (dose: 400.0 mg/kg/injection, schedule: Q01DX001 (ip), vehicle: other) 0 of 6.

For the compound `CSc1ccc([PH+](c2ccc(SC)cc2)c2ccc(SC)cc2)cc1.CSc1ccc([PH+](c2ccc(SC)cc2)c2ccc(SC)cc2)cc1.[Cl][Hg][Cl]`, under setting [7], the survivor count is recorded as 3 of 3.

`Cc1cc(N)c(C)c2ccncc12`: the survivor count was 2 of 4 (dose: 10.0 mg/kg/injection, schedule: Q01DX001 (ip), vehicle: saline); 1 of 4 (dose: 20.0 mg/kg/injection, schedule: Q01DX001 (ip), vehicle: saline); 0 of 4 (dose: 40.0 mg/kg/injection, schedule: Q01DX001 (ip), vehicle: saline); 0 of 4 (dose: 80.0 mg/kg/injection, schedule: Q01DX001 (ip), vehicle: saline); 0 of 4 (dose: 100.0 mg/kg/injection, schedule: Q01DX001 (ip), vehicle: saline); 0 of 4 (dose: 200.0 mg/kg/injection, schedule: Q01DX001 (ip), vehicle: saline). Moreover, the survivor count under setting [1] is 0 of 4.

In the case of `CC1=C2C(=CO[C@H](C)[C@H]2C)C(=O)C(C(=O)O)=C1O`, the survivor count was 0 of 3 (dose: 100.0 mg/kg/injection, schedule: Q04DX002 (ip), vehicle: saline with Tween-80) and 0 of 3 (dose: 200.0 mg/kg/injection, schedule: Q04DX002 (ip), vehicle: saline with Tween-80).

Consider `O=c1ccc([N+](=O)[O-])c[nH]1.[Ag]`, for which the survivor count was 3 of 6 under setting [8], 1 of 6 under setting [6], 0 of 6 under setting [9] and 0 of 6 under setting [3].

Turning to `O=C(O)c1cc(I)c(I)c(I)c1`, the survivor count (dose: 400.0 mg/kg/injection, schedule: Q04DX003 (ip), vehicle: saline with Tween-80) is on record as 2 of 3.

Consider `O=[N+]([O-])c1c(Cl)ccc2nsnc12`, for which the survivor count under setting [8] was 6 of 6, the survivor count under setting [6] was 3 of 6, the survivor count under setting [9] was 2 of 6 and the survivor count under setting [3] is 0 of 6.

For `CC(C)(O)C(O)C(=O)O` (centres undefined), under “dose: 400.0 mg/kg/injection, schedule: Q01DX009 (ip), vehicle: saline”, the survivor count is recorded as 2 of 6.
